Data published in publication PMC11234217.
Results are given in words; binding and its absence hold for the method and conditions named. In cells and extracts the contact can be indirect. Some results given as binding are weak or reduced against the parent protein; the word gives no strength. Tags and fused reporters may be left off the sequences shown.

Experiments:
[1] = target: T1, STAT1-EGFP (signal transducer and activator of transcription 1) (UniProt P42225); assay: co-IP; 293T cells expressing VCP-Myc, STAT1-EGFP and Epsti1-SRT or its truncation mutants; RIPA lysates, antibody plus Protein A/G agarose beads, immunoblot
T1 sequence: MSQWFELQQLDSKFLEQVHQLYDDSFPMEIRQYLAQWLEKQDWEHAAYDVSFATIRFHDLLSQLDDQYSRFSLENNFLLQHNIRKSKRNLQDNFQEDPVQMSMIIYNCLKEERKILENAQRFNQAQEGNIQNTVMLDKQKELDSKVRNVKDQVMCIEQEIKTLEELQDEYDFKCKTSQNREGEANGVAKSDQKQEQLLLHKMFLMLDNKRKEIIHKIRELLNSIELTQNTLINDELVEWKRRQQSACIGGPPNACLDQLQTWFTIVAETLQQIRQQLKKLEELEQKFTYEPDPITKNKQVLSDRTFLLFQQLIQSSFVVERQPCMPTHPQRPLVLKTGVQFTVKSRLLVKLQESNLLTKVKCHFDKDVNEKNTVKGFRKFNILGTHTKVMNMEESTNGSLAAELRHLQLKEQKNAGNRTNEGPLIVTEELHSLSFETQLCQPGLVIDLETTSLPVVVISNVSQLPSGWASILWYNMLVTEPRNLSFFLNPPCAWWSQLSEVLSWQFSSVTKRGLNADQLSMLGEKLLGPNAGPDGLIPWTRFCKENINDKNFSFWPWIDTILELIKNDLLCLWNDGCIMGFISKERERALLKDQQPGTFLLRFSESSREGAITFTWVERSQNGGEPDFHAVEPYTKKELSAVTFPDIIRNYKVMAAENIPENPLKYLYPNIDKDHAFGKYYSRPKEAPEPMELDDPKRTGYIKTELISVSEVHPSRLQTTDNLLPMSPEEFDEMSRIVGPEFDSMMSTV

[2] = target: Mouse VCP (valosin-containing protein), Myc-tagged (mouse) (UniProt Q01853); assay: as above

B1: Epsti1-SRT (epithelial-stromal interaction 1) (protein, UniProt Q8VDI1 1-314)
chain: MYTRSKVVGPGLGTSSISRDHAGAGQRRELGLQQNRRQSLEVAAPEGPKMERQGHADQGSAGTYTLIAPNESRRQKIQRIAEQELADLERWKQQNRAKPVYLVPQRLGGSQSEAEVRQKQQLQQMRSKYQQKLKRDESIRIRKEAEEAKFQKMKAIQREKSNKLEEKKQLQEDIRRATFREHHQSKTAELLSRLDTERRNRSACLIAPPATQSSRWKLPVLLRDPSWAGSQAHRDSPQKEDNPRLQKTRDGHQKNKLLETKGQHQEEERAQIHQAEHWRVNNAFLDRLQGKSQPGGLEQSGGCCNMNSTDSWGL
binding [1]: binds
binding [2]: binds

B2: Epsti1 coiled-coil domain deletion (△71-180), SRT-tagged (protein, UniProt Q8VDI1)
chain: MYTRSKVVGPGLGTSSISRDHAGAGQRRELGLQQNRRQSLEVAAPEGPKMERQGHADQGSAGTYTLIAPNEHHQSKTAELLSRLDTERRNRSACLIAPPATQSSRWKLPVLLRDPSWAGSQAHRDSPQKEDNPRLQKTRDGHQKNKLLETKGQHQEEERAQIHQAEHWRVNNAFLDRLQGKSQPGGLEQSGGCCNMNSTDSWGL
binding [2]: no binding
